Data taken from the supplement of paper PMC3334620.
The full ranking holds about 33,000 sequences; the median of “E-score (-0.5 to 0.5)” is about -0.015, and the highest 2% start at about 0.3. The list shows a part of the results.

The sequences below were run against T1, Abf1 (UniProt P14164) (assay: PBM E-score (8-mer binding enrichment) (E-score (-0.5 to 0.5)); higher = stronger / more preferred TF binding). Conditions: protein concentration: 200 nM; construct: GST-full length.
T1 sequence: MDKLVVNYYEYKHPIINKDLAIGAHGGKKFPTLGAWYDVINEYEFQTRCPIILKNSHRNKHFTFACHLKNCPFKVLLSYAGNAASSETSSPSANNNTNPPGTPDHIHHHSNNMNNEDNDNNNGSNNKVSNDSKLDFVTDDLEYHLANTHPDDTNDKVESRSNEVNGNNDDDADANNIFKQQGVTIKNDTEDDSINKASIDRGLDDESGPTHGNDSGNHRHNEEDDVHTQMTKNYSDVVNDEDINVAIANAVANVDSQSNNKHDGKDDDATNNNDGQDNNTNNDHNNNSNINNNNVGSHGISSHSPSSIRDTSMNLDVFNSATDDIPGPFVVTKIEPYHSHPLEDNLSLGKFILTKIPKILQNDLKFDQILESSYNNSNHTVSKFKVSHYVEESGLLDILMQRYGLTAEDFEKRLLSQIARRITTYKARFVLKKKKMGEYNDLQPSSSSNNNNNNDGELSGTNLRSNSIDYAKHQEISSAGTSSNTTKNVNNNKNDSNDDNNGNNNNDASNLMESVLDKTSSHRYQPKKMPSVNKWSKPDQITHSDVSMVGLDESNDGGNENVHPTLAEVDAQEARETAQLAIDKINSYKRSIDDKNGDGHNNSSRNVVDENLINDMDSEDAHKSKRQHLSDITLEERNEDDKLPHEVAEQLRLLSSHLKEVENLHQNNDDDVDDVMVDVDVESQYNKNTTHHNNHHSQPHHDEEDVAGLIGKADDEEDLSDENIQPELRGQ
Procedure, shortened: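 Universal all-10-mer Agilent arrays, fresh or stripped once, were converted to double-stranded form by primer extension. GST-tagged yeast transcription factors from PURExpress in vitro transcription/translation, full-length or DNA-binding domain only, were applied at about 100-200 nM and detected with fluorescent anti-GST. After masliner normalisation, the Universal PBM Analysis Suite scored each ungapped eight-base word together with its reverse complement by E-score.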

Sequence | PBM E-score
GAGGCTGC | -0.259
CGAGCCCC | -0.243
GACTACCA | -0.0833
CCGGGTAA | 0.141
GCAGATAC | 0.0399
CTGATATA | 0.107
GTTCATCA | 0.142
AGCACTAG | 0.0299
AGCTGACT | -0.0133
CTGTAGTA | 0.146
CGATCACC | 0.0211
ACGACTCT | 0.15
CTGCGAAA | 0.0374
CATCTGGA | 0.0204
AACGTGCA | 0.0844
GATAGCCC | -0.158
CCGGCGTA | 0.0451
GATTTTTA | 0.119
CCTTCGAG | -0.0998
GGTGAGTA | -0.0429
AGCAGCGC | -0.127
CCAGCGTC | -0.282
CACTCATC | 0.175
CGCGCCAC | -0.0324
AGACCCAA | -0.264

Sequence | PBM E-score
AGTAGCAA | 0.185
CAAAACCC | -0.0399
AGACCACG | -0.281
GTGGAAAA | 0.0979
GTGCGAAA | 0.0843
AGGACTTC | 0.0132
AAACAAGA | -0.0172
ACATGCCT | -0.225
ATTCTGAG | -0.019
TATTGTCA | 0.263
ATTTCACA | 0.118
CATCTTCG | 0.00373
GTCACTGA | 0.253
CTTACAAA | -0.0513
ACCGCCGA | 0.0103
GTCAATTA | 0.144
ACGGTGCG | 0.128
ACACGAAA | 0.288
TAGTTATA | 0.0993
CGCGATCC | -0.00259
GACAATGC | 0.15
GAGATCCA | -0.0103
AATTCCGA | 0.0805
AGATCTGG | -0.379
AGAGATTC | -0.0726

A different layout for some results above:
CAAAACCC
  PBM E-score: -0.0399
GTGGAAAA
  PBM E-score: 0.0979
TATTGTCA
  PBM E-score: 0.263
ATTTCACA
  PBM E-score: 0.118

Next records.

Sequence | PBM E-score
GGCAACAA | -0.227
CCCCGTAC | 0.154
GGCTGCCA | -0.246
AACGGAGC | 0.0288
CACACGTC | -0.0019
AAGTCACT | 0.304
CAGATGTC | 0.0203
ACTCCCGG | -0.158
GAGGAAGC | -0.196
ATGACAGC | 0.199
CTCAGCTC | -0.133
CCTCCCTA | -0.271
GATGGAGA | -0.00795
AAGATCTC | 0.0478
GGGAACAC | 0.0308
AATACTAG | 0.0756
CGACCAAC | 0.0229
ACGGGGCC | 0.0234
CTTTAAGC | -0.0358
CTCGATCC | -0.0517
CTCTACCC | -0.119
AGACACCG | -0.149
ACCCATGC | 0.00843
TCATCAGA | 0.094
AACCAACG | -0.0962

Sequence | PBM E-score
TATTTCGA | 0.272
GGTGGTAC | -0.0732
GAAATAGC | 0.0369
TGATCAAA | 0.103
ATAGTAAA | 0.187
CAACCCGG | -0.26
CCAGTCAC | 0.0589
CGTTACCC | -0.152
CTGCGGCA | -0.149
AACCGCCA | -0.267
AGCGAGCC | -0.135
AGAGAGTC | -0.351
ACCCAAGA | -0.0267
GACGTACA | 0.0733
GTTTCAGA | 0.124
CCGTCGGC | -0.0924
CAATGGTG | -0.354
ATGGTTCC | 0.00886
CGACCGAG | -0.112
GTGGGAGA | 0.114
CAACTTGC | -0.105
CATCGAGA | 0.0311
AAAATTGC | -0.09
AGCTCTGG | -0.125
CGCGCACA | -0.0973

For convenience, part of the list above:
Sequence | PBM E-score
GTTCATCA | 0.142
AGCACTAG | 0.0299
AGCTGACT | -0.0133

(next part)

Sequence | PBM E-score
AAAATGTC | 0.194
ACTCCGAC | -0.13
ATGCTAAC | -0.14
CTCAGAAG | -0.218
ACGGGTGG | 0.0777
CATAACAA | 0.138
AGACCGCT | -0.207
CCACCTAA | -0.0747
AAGTCGCC | -0.191
GTGGGCAA | -0.0734
CCTGGACC | -0.176
ACCCCACG | -0.275
ATCGGAAC | 0.0182
GCGCTAAC | 0.03
CAGGCAAA | 0.00767
AAATCCCC | -0.106
CCAGAGCG | -0.0906
ACGTCTAC | 0.0532
AACTTGGC | -0.0897
AGCCTGAA | -0.0124
ATGCTCGC | 0.0107
CTAACTAA | 0.0202
ACCATTGG | -0.0534
ACTGACGG | -0.0335
ACTCCCTC | -0.0922

Sequence | PBM E-score
GACGCATA | 0.0893
CATGAATA | -0.0266
ACACACTC | -0.103
AACGCCTA | -0.0686
CGGGAACG | -0.153
ACCCCGAG | -0.147
AGTCCTCG | -0.0929
AGGCCTGC | -0.312
GGAGCGGA | -0.179
AAGTGTGG | -0.198
ATCACACA | 0.195
CATCGACA | -0.117
ATCCTGGA | 0.076
GGTCCATA | -0.181
ATGATTTC | 0.275
CCCCCAGG | -0.315
GTGAAACA | 0.0972
GCATTGAA | 0.0569
GTAGCGAC | 0.0621
CGTAAAAC | 0.0953
CGACATTA | 0.317
GTAGCCTA | -0.102
ACTCTGAC | -0.0634
GGCCTAGA | -0.0468
AGGTAGTC | -0.187

Sequence | PBM E-score
AGCCAGAC | -0.15
GGCCAGGA | -0.0402
CGTGTCCC | 0.0114
ACTCATCG | -0.0101
GACAGGAC | -0.142
GCTAACGA | 0.175
AACTTACA | -0.0171
CATAAATG | 0.115
CATCTTTC | 0.158
ACACCCAT | -0.00346
GGGGGATA | -0.194
GCGCTACA | 0.0648
AAATGTCC | -0.0483
AATGGCGT | -0.201
AAATTCCC | -0.108
AAGGCACG | 0.107
AAGTAAGA | -0.141
ATATAGAT | 0.14
AACCCACG | 0.0411
GTCGTGTA | 0.239
TCACCCCA | 0.204
AATATCCA | 0.0292
